From patent US20090317401A1
These are yes or no findings as the source states them, for the method shown. Some binding calls cover weakened binding; strength is not graded here.

What was measured:
[1] = target: T1, human CD160 receptor (human) (UniProt O95971); assay: flow cytometry with PE tetramers
T1 sequence (GPI-anchored, looked up): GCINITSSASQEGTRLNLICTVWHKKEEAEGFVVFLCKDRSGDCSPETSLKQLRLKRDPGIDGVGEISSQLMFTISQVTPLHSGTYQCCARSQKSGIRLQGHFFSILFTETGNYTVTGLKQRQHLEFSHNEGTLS

[2] = target: T1, human CD160 receptor (human); assay: flow cytometry with PE tetramers, 37 C, 1 h
[3] = target: T1, human CD160 receptor (human); assay: figure legend title; tetramer staining and blocking of CL1-R2 on HUVEC
[4] = target: T1, human CD160 receptor (human); assay: radioreceptor assay: 125I-sHLA-G1 on HUVEC at 4 C, unlabelled sHLA-G1 as competitor; the receptor on HUVEC is named CD160 later in the filing
[5] = target: T1, human CD160 receptor (human); assay: figure legend title; flow cytometry on HUVEC
[6] = target: T1, human CD160 receptor (human); assay: radioreceptor assay: 125I-sHLA-G1 on HUVEC at 4 C, 2 h, unlabelled sHLA-G1 as competitor; the receptor on HUVEC is named CD160 later in the filing
[7] = target: T1, human CD160 receptor (human); assay: tetramer staining and blocking of CL1-R2 on HUVEC, flow cytometry
[8] = target: T1, human CD160 receptor (human); assay: pre-incubation of HUVEC with sHLA-G1, then CL1-R2 staining, flow cytometry

Measured: binding

HLA-G1 tetramer with self-peptide …, streptavidin-PE (from UniProt P17693 25-300; P61769 21-119) (peptide-MHC)
binds: [1] | [2]

soluble HLA-G1 (sHLA-G1), purified recombinant (from UniProt P17693 25-319; P61769 21-119) (ligand)
not listed: [1] | [2]
binds: all other assays above
